Data as given in PubChem BioAssay AID493246 (Drosophila RNAi Screening Center, 2011).
The deposit covers about 21,000 reagents; below is an unselected part of those with a known target gene and a result. In the full data, 429 (2%) are marked active. 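Values are raw and not normalised between plates; calls rest on per-plate z-scores that were not deposited.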 Unmarked entries are inactive. Reagents against one gene are numbered here. Not stated in the record: the amount of reagent, the time to read-out.

Assay: 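Identify essential fly genes by loss of cell viability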 (primary screen)
System: Drosophila Kc and S2R+ cells
Reagents: long dsRNA against Drosophila genes
Detection: 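Raw, unnormalised count of remaining cells in each well; per-plate z-scores of cell number underlie the calls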
Direction: Kc cell number and S2R+ cell number: higher = more cells remaining
Active means: 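Counted as a hit if cell number falls by a z-score of at least 3 within its plate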

The opening 7 entries, to show the layout:
gene | dsRNA no. | Kc cell number, rep 1 | Kc cell number, rep 2 | S2R+ cell number, rep 1 | S2R+ cell number, rep 2
Dolk (Dolichol kinase) | 1 | 1.62e6 | 1.64e6 | 1.15e6 | 1.30e6
IM33 (Immune induced molecule 33) | 1 | 1.57e6 | 1.41e6 | 1.15e6 | 1.34e6
CG9240 | 1 | 1.42e6 | 1.49e6 | 9.26e5 | 9.98e5
Ccp84Ae | 1 | 1.44e6 | 1.38e6 | 1.06e6 | 1.17e6
CG13168 | 1 | 1.49e6 | 1.52e6 | 1.24e6 | 1.32e6
Fum1 (Fumarase 1) | 1 | 5.85e5 | – | 9.37e5 | –
VhaAC45 (Vacuolar H[+] ATPase AC45 accessory subunit) | 1 | 8.63e5 | 1.02e6 | 8.31e5 | 9.36e5

Results, repeating the preview:
gene | dsRNA no. | Kc cell number, rep 1 | Kc cell number, rep 2 | S2R+ cell number, rep 1 | S2R+ cell number, rep 2
Dolk (Dolichol kinase) | 1 | 1.62e6 | 1.64e6 | 1.15e6 | 1.30e6
IM33 (Immune induced molecule 33) | 1 | 1.57e6 | 1.41e6 | 1.15e6 | 1.34e6
CG9240 | 1 | 1.42e6 | 1.49e6 | 9.26e5 | 9.98e5
Ccp84Ae | 1 | 1.44e6 | 1.38e6 | 1.06e6 | 1.17e6
CG13168 | 1 | 1.49e6 | 1.52e6 | 1.24e6 | 1.32e6
Fum1 (Fumarase 1) | 1 | 5.85e5 | – | 9.37e5 | –
VhaAC45 (Vacuolar H[+] ATPase AC45 accessory subunit) | 1 | 8.63e5 | 1.02e6 | 8.31e5 | 9.36e5
Acyp2 (Acylphosphatase 2) | 1 | 1.35e6 | 1.41e6 | 1.07e6 | 1.21e6
Cpr23B (Cuticular protein 23B) | 1 | 1.67e6 | 1.64e6 | 1.11e6 | 1.27e6
CG14823 | 1 | 1.44e6 | 1.38e6 | 1.24e6 | 1.17e6
CG4953 | 1 | 1.33e6 | 1.37e6 | 1.18e6 | 1.28e6
Pkc98E (Protein C kinase 98E) | 1 | 5.33e5 | – | 8.09e5 | –
CG9119 | 1 | 1.37e6 | 1.37e6 | 9.42e5 | 9.68e5
Su(var)3-9 (Suppressor of variegation 3-9) | 1 | 1.64e6 | 1.63e6 | 1.19e6 | 1.24e6
STUB1 (STIP1 homology and U-box containing protein 1) | 1 | 1.62e6 | 1.77e6 | 1.30e6 | 1.49e6
Top2 (Topoisomerase 2) | 1 | 1.58e6 | 1.80e6 | 1.23e6 | 3.64e5
NaPi-T (Na[+]-dependent inorganic phosphate cotransporter) | 1 | 1.48e6 | 1.55e6 | 1.32e6 | 1.35e6
rdgC (retinal degeneration C) | 1 | 1.78e6 | 1.94e6 | 1.42e6 | 1.62e6
CG42676 | 1 | 1.34e6 | 1.41e6 | 1.17e6 | 1.19e6
CG42676 | 2 | 1.28e6 | 1.43e6 | 1.10e6 | 1.24e6
MstProx | 1 | 1.42e6 | 1.48e6 | 1.10e6 | 1.28e6
MstProx | 2 | 1.58e6 | 1.75e6 | 1.32e6 | 1.44e6
ana3 (anastral spindle 3) | 1 | 1.47e6 | 1.48e6 | 1.24e6 | 1.31e6
CG17658 | 1 | 1.62e6 | 1.72e6 | 1.38e6 | 1.52e6
RnrS (Ribonucleoside diphosphate reductase small subunit) | 1 | 8.89e5 | 9.51e5 | 6.23e5 | 7.35e5
CG3430 | 1 | 1.28e6 | 1.33e6 | 5.70e5 | 8.53e5
CG17350 | 1 | 1.63e6 | 1.68e6 | 1.25e6 | 3.51e5
Zip88E (Zinc/iron regulated transporter-related protein 88E) | 1 | 1.30e6 | 1.53e6 | 9.48e5 | 1.03e6
mth (methuselah) | 1 | 1.49e6 | 1.56e6 | 1.36e6 | 1.40e6
Magi | 1 | 1.41e6 | 1.56e6 | 1.10e6 | 1.07e6
Magi | 2 | 1.45e6 | 1.71e6 | 1.39e6 | 3.34e5
CG11498 | 1 | 1.47e6 | 1.63e6 | 1.09e6 | 1.19e6
Irbp (Inverted repeat-binding protein) | 1 | 1.47e6 | 1.50e6 | 1.29e6 | 1.40e6
CG4467 | 1 | 1.58e6 | 1.74e6 | 1.04e6 | 1.14e6
Hr39 (Hormone receptor-like in 39) | 1 | 1.38e6 | 1.47e6 | 1.08e6 | 1.22e6
CG7565 | 1 | 1.57e6 | 1.62e6 | 1.44e6 | 1.17e6
CR31292 (pseudo) | 1 | 1.62e6 | 1.99e6 | 1.14e6 | 1.36e6
CG32040 | 1 | 1.50e6 | 1.56e6 | 1.19e6 | 1.31e6
CG13069 | 1 | 1.46e6 | 1.74e6 | 1.40e6 | 1.51e6
Pus10 (Pseudouridine synthase 10) | 1 | 1.13e6 | 1.23e6 | 5.24e5 | 6.68e5
CG11777 | 1 | 1.64e6 | 1.70e6 | 1.41e6 | 1.50e6
Tsp42El (Tetraspanin 42El) | 1 | 1.68e6 | 1.76e6 | 1.20e6 | 1.16e6
CG32720 | 1 | 1.30e6 | 1.55e6 | 1.05e6 | 1.16e6
BckdhB (Branched chain keto acid dehydrogenase E1 subunit beta) | 1 | 1.36e6 | 1.44e6 | 1.03e6 | 1.08e6
melt (melted) | 1 | 1.57e6 | 1.45e6 | 1.12e6 | 1.25e6
HP6 (Heterochromatin protein 6) | 1 | 1.39e6 | 1.33e6 | 1.01e6 | 1.12e6
Su(H) (Suppressor of Hairless) | 1 | 1.59e6 | 1.63e6 | 1.33e6 | 1.42e6
dom (domino) | 1 | 1.05e6 | 1.16e6 | 8.04e5 | 8.24e5
dom (domino) | 2 | 1.33e6 | 1.47e6 | 1.11e6 | 2.77e5
CG31805 | 1 | 1.45e6 | 1.50e6 | 9.15e5 | 1.11e6
CG15211 | 1 | 1.55e6 | 1.51e6 | 9.64e5 | 1.11e6
Eato (Engulfment ABC Transporter in the ovary) | 1 | 1.50e6 | 1.61e6 | 1.16e6 | 1.14e6
Eato (Engulfment ABC Transporter in the ovary) | 2 | 1.54e6 | 1.61e6 | 1.21e6 | 1.32e6
Tim23 (Translocase of inner mitochondrial membrane 23) | 1 | 1.36e6 | 1.49e6 | 1.04e6 | 1.13e6
CG31635 | 1 | 1.76e6 | 1.81e6 | 1.36e6 | 1.49e6
CG31635 | 2 | 1.63e6 | 1.85e6 | 1.01e6 | 1.18e6
CG4404 | 1 | 1.49e6 | 1.48e6 | 9.11e5 | 9.87e5
baf (barrier to autointegration factor) | 1 | 1.75e6 | 1.89e6 | 1.17e6 | 1.25e6
CG11298 | 1 | 1.62e6 | 1.70e6 | 1.24e6 | 1.34e6
